Measured values: patent publication US11077139B2, “Combination of an arsenic compound and at least one retinoid for treating acute myeloid leukemia” (INSERM (Institut National de la Sante et de la Recherche …, priority 2013, dated 2021)
For at least one compound, name, drawing or mass did not settle the structure.

Amino acid sequences for entries named in this document (tags omitted).
UniProt P06748, whole entry, stated change not applied: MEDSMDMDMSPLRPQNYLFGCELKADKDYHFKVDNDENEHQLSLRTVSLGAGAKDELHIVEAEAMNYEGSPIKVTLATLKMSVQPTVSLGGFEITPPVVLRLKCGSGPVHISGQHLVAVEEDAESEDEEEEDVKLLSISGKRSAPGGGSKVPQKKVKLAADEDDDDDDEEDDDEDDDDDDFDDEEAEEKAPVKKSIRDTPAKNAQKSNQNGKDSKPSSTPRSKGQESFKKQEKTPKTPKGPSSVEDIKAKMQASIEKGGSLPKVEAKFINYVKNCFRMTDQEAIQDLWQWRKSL

Columns and labels:
Type in all cases: cell-based
OCI-AML3 cells = assay: Annexin V staining and TUNEL assay (FACS); details: single agent; only observed in OCI-AML3 cells
mutant NPM-1 [1] = assay: Western blot for NPM-1 and mutated NPM-1; details: OCI-AML3 cells, antibody detecting both wt and mutant proteins
Protocol: (§1) Cells were solubilized at 4° C. in lysis buffer. […] Blots were incubated with specific antibodies, washed and proteins were visualized using the ECL chemiluminescence system (Santa Cruz, Germany). The following antibodies were used; monoclonal anti-wt NPM-1 (Abnova, Abcam), polyclonal anti-mutated NPM-1 (Abnova), anti-actin (Santa-cruz, Germany) and anti-GAPDH (Abnova).

mutant NPM-1 [2] = molecular target: T1, mutant NPM-1 (Homo sapiens, UniProt P06748); assay: Western blot for NPM-1 and mutated NPM-1; details: THP-1 and ML-2 cells (wt NPM-1)
T1 construct: Western blot analysis for NPM-1, mutated NPM-1, actin or GAPDH in THP-1 and OCI-AML3 cells; endogenous in cells; host or cells: OCI-AML3 cells; primary AML patient cells
Protocol: as §1

## CC1=C(/C=C/C(C)=C/C=C/C(C)=C/C(=O)O)C(C)(C)CCC1 [RA, retinoic acid]
OCI-AML3 cells
  Annexin-V and TUNEL positivity: increase
Mutant NPM-1 [1]
  NPM-1 degradation: triggered NPM-1 degradation
Mutant NPM-1 [2]
  effect on NPM-1 expression: No effect
